Some entries share one result that the patent states for a list of compounds.
Assays:
HL-60 cells [1] = test: observation of apoptosis under an optical microscope; format: cell-based, human; settings: HL-60, 24 hours
Method: (1) HL-60 cells (ATCC CCL-240) incubated at 37° C. in an RPMI 1640 medium (manufactured by BioWhittaker) containing 10% of fetal bovine serum (manufactured by JRH) treated at 56° C. for 30 minutes were suspended in an RPMI 1640 medium to make the concentration 2.5×10^5 cells/5 ml.
To 5 ml of this suspension were added 10 μl of 12.5 mM, 25 mM, 50 mM or 100 mM of a 70% ethanolic solution of 4,5-dihydroxy-2-pentenal prepared in Example 6-(1), 0.05 mM, 0.5 mM, 5 mM or 50 mM of a 70% ethanolic solution of 4-hydroxy-2-cyclopenten-1-[…] prepared in Example 6-(1), 5 mM, 10 mM or 20 mM of a 70% ethanolic solution of 4-(9-adeninyl)-2-cyclopenten-1-one prepared in Example 4-(4), 2.5 mM, 5 mM, 15 mM or 25 mM of a 70% ethanolic solution of 4-(9-guaninyl)-2-cyclopenten-1-one prepared in Example 4-(5), 75 mM, 150 mM or 300 mM of a 70% ethanolic solution of 1,5-epoxy-1-hydroxy-3-penten-2-one prepared in Example 5-(2) or 5 mM, 25 mM or 50 mM of a 70% ethanolic solution of 2-(trans-3,4-dihydroxy-1-butenyl)-4-(trans-2-formylvinyl)-1,3-dioxolane prepared in Example 6-(2) followed by incubating at 37° C. in the presence of 5% carbon dioxide gas for 24 hours.
Incidentally, such phenomena were not noted in the incubated cells to which […] of 70% ethanolic solution were added used as a control.

Amino acid sequences for entries named in this document (tags omitted). A change or cut given only in a name is not applied to a line headed by its entry.
UniProt P11388: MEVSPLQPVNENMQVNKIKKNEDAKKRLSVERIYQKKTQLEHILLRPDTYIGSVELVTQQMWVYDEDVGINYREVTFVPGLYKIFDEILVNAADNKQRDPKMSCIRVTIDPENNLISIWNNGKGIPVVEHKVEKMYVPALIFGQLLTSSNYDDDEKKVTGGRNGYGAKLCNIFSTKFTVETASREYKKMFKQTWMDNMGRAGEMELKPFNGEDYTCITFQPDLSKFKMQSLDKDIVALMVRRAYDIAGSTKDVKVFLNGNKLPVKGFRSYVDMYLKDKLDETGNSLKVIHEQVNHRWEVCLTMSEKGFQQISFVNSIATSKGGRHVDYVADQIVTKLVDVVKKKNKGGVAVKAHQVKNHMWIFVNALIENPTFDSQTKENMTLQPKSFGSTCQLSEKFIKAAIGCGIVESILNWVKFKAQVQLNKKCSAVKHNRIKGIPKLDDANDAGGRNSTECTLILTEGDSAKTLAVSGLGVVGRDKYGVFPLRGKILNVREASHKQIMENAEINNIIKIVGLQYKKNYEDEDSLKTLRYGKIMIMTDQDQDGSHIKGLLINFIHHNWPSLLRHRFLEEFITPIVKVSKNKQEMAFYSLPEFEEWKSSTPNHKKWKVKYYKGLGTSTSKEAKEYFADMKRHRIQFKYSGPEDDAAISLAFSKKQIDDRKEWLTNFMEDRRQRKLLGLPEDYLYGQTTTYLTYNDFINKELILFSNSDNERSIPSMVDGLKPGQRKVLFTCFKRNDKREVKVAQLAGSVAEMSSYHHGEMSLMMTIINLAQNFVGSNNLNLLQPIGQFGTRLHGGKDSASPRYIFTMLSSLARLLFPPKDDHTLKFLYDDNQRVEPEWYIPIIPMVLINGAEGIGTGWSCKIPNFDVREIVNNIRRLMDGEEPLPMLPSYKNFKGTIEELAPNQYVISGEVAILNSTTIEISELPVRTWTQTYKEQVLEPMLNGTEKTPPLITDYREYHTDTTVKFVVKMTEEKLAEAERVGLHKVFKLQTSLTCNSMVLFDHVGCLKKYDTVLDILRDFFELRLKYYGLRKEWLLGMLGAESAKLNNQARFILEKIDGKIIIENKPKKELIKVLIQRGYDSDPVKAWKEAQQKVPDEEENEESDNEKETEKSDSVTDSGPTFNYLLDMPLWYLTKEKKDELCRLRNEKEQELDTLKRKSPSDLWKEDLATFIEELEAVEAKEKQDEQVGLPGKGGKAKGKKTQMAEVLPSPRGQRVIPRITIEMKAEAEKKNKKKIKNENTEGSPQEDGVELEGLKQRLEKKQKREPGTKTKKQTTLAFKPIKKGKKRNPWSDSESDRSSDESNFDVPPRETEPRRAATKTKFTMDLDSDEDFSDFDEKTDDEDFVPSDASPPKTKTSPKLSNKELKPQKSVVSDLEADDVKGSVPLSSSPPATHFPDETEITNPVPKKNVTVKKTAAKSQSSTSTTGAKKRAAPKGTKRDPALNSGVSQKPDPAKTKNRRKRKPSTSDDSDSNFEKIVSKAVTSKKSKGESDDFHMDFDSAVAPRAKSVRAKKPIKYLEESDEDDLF

HL-60 cells [2] = test: measurement of apoptosis cells using FACScan; format: cell-based, human; settings: HL-60, 24 hours and 48 hours
Method: (2) HL-60 cells which were incubated on an RPMI 1640 medium containing 10% of fetal bovine serum processed at 56° C. for 30 minutes were suspended in an RPMI 1640 medium to make 2.5×10^5 cells/5 ml.
To 5 ml the suspension were added 10 μl of 12.5 mM, 25 mM, 50 mM or 100 mM of a 70% ethanolic solution of 4,5-dihydroxy-2-pentenal, 0.05 mM, 0.5 mM, 5 mM or 50 mM of a 70% ethanolic solution of 4-hydroxy-2-cyclopenten-1-one, 5 mM, 10 mM or 20 mM of a 70% ethanolic solution of 4-(9-adeninyl)-2-cyclopenten-1-one prepared in Example 4-(4), 2.5 mM, 5 mM, 15 mM or 25 mM of a 70% ethanolic solution of 4-(9-guaninyl)-2-cyclopenten-1-one prepared in Example 4-(5) 75 mM, 150 mM or 300 mM of a 70% ethanolic solution of 1,5-epoxy-1-hydroxy-3-penten-2-one prepared in Example 5-(2) or 5 mM, 25 mM or 50 mM of a 70% ethanolic solution of 2-(trans-3,4-dihydroxy-1-butenyl)-4-(trans-2-formylvinyl)-1,3-dioxolane prepared in Example 6-(2) followed by incubating at 37° C. in the presence of 5% of carbon dioxide gas for 24 hours and 48 hours and the resulting cells were subjected to a measurement of apoptosis cells using FACScan by a method mentioned in pages 129-130 of “Experimental Protocol Series—Apoptosis Experiment Protocol” which was an extra issue of “Saibo Kogaku (Cell Technology)” (published by Shujunsha in 1994) and also to a measurement of analysis of fragmentation of DNA by a method mentioned in page 61-63 of “Biomanual UP Series—New Experimental Methods for Apoptosis” (published by Yodosha in 1995).

topoisomerase II = biological target: T1, topoisomerase II (Homo sapiens, UniProt P11388); test: topoisomerase II inhibition, pBR322 DNA relaxation; format: biochemical; settings: 37° C., 30 minutes
T1 construct: purchased Topogen

[3] = tested on: hIGF-1 production in Hs68 cells; test: induction of hIGF-1 production, ELISA; format: cell-based, human
Method: Hs 68 cells (ATCC CRL-1635) which were human […] were incubated on a D-MEM medium (manufactured by Gibco BRL) containing 10% of fetal bovine serum (FBS manufactured by BioWhittaker) at 37° C. in the presence of 5% of CO2 until the cells were saturated in the culture medium, a trypsin-EDTA solution (manufactured by BioWhittaker) was suspended in the above medium to make 3×10^5 cells/ml and each 200 μl of the suspension were placed in each well of a 96-well microtiter plate. After five days from the incubation, the medium was discarded at the stage where the cells were almost saturated in the culture medium and a medium containing 5, 10, 20, 40, 100 or 200 μM of 4,5-dihydroxy-2-pentenal or 4-hydroxy-2-cyclopenten-1-one was added thereto. A time course of 96 hours was adopted and, every 24 hours, the supernatant liquid of the incubated medium was recovered and the influence of 4,5-dihydroxy-2-pentenal and 4-hydroxy-2-cyclopenten-1-one on the induction of hIGF-1 production in Hs68 cells was measured using an ELISA-kit for hIGF-1 (manufactured by Diagnostic System Labo).

SMILES	final concentration at which aggregation of nuclei, reduction in size of the cells and formation of apoptic body were confirmed (HL-60 cells [1])	final concentration at which apoptosis cells were confirmed (HL-60 cells [2])	concentration that partially or completely inhibited the change from supercoiled to relaxed circular DNA (topoisomerase II)	concentration at which hIGF production was induced [3]
O=C1C=CC(O)C1 (stereo not shown) [4-hydroxy-2-cyclopenten-1-one]	≥ 10 µM	≥ 10 µM	≥ 100 µM	≥ 100 µM
O=C/C=C/C1COC(/C=C/C(O)CO)O1 (stereo not drawn) [2-(trans-3,4-dihydroxy-1-butenyl)-4-(trans-2-formylvinyl)-1,3-dioxolane]	–	≥ 50 µM	–	–
O=CC=CC(O)CO (single isomer, unassigned) [4,5-dihydroxy-2-pentenal, trans-4,5-dihydroxy-2-pentenal]	–	≥ 50 µM	≥ 100 µM	≥ 100 µM
Nc1ncnc2c1ncn2C1C=CC(=O)C1 (stereo not shown) [4-(9-adeninyl)-2-cyclopenten-1-one]	≥ 10 µM	≥ 10 µM	–	–

From US6809091B1, “Substances capable of inducing apoptosis” (Takara Bio Inc., priority 1998, dated 2004)
